Test results reported in patent US8580785B2, “Insecticides” (Syngenta Crop Protection LLC, priority 2005, dated 2013).
Some of these results come from one statement about several compounds together. For at least one compound, name, drawing or mass did not settle the structure.

What was measured:
Type in all cases: in vivo
Plutella xylostella = assay: Activity against Plutella xylostella; conditions: 400 ppm spray on young cabbage plants; 3rd instar caterpillars; 3 days
Protocol: (§1) Young cabbage plants are sprayed with an aqueous emulsion spray mixture comprising 400 ppm of active ingredient and, after the spray coating has dried on, populated with 10 caterpillars (3rd instar) of Plutella xylostella and introduced into a plastic container. 3 days later, the percentage reduction in the population and in the feeding damage (% activity) are determined by comparing the number of dead caterpillars and the feeding damage between the treated and untreated plants.

Heliothis virescens eggs = assay: Activity against Heliothis virescens (application to eggs); conditions: 400 ppm spray on eggs deposited on cotton; 8 days
Diabrotica balteata = assay: Activity against Diabrotica balteata (sprayed maize seedlings); conditions: 400 ppm spray on maize seedlings; 2nd instar larvae; 6 days
Protocol: Maize seedlings are sprayed with an aqueous emulsion spray mixture comprising 400 ppm of active ingredient and, after the spray coating has dried on, populated with 10 larvae (2nd instar) of Diabrotica balteata and introduced into a plastic container. 6 days later, the percentage reduction in the population (% activity) is determined by comparing the number of dead larvae between the treated and untreated plants.

Spodoptera littoralis [1] = assay: Activity against Spodoptera littoralis; conditions: 400 ppm spray on young soya plants; 1st instar caterpillars; 3 days
Protocol: as §1, with “soya” for “cabbage”, “(1st” for “(3rd”, “Spodoptera littoralis” for “Plutella xylostella”

Spodoptera littoralis [2] = assay: Systemic insecticide test for Spodoptera littoralis (cotton leafworm); conditions: 12.5 ppm in water of maize seedlings, six days uptake; 1st instar larvae on cut leaves, four days; one replicate

CC(C)NC(=O)c1cc2nccnc2c(Cl)c1NC(=O)c1cc(C(F)(F)F)nn1-c1ncccc1Cl [Compound T1.1.8]
over 80%: percentage reduction in the population and in the feeding damage (% activity) (Plutella xylostella) | percentage hatching rate of the eggs and survival rate of the caterpillars (% activity) (Heliothis virescens eggs) | percentage reduction in the population (% activity) (Diabrotica balteata) | percentage reduction in the population and in the feeding damage (% activity) (Spodoptera littoralis [1])

CC(C)NC(=O)c1cc2nccnc2c(Cl)c1NC(=O)c1cc(OCC(F)(F)F)nn1-c1ncccc1Cl [Compound T1.1.62]
over 80%: percentage reduction in the population and in the feeding damage (% activity) (Plutella xylostella) | percentage hatching rate of the eggs and survival rate of the caterpillars (% activity) (Heliothis virescens eggs) | percentage of dead (activity) (Spodoptera littoralis [2]) | percentage reduction in the population and in the feeding damage (% activity) (Spodoptera littoralis [1])

CNC(=O)c1cc2ncccc2c(Cl)c1NC(=O)c1cc(OCC(F)(F)F)nn1-c1ncccc1Cl [Compound T3.1.56]
over 80%: percentage of dead (activity) (Spodoptera littoralis [2])

CNC(=O)c1cc2nc(C(F)(F)F)ccc2c(Br)c1NC(=O)c1cc(C(F)(F)F)nn1-c1ncccc1Cl [Compound T8.1.3]
over 80%: percentage reduction in the population and in the feeding damage (% activity) (Plutella xylostella) | percentage hatching rate of the eggs and survival rate of the caterpillars (% activity) (Heliothis virescens eggs) | percentage reduction in the population (% activity) (Diabrotica balteata) | percentage reduction in the population and in the feeding damage (% activity) (Spodoptera littoralis [1])

CCNC(=O)c1cc2nc(C(F)(F)F)ccc2c(Cl)c1NC(=O)c1cc(C(F)(F)F)nn1-c1ncccc1Cl [Compound T8.1.5]
over 80%: percentage reduction in the population and in the feeding damage (% activity) (Plutella xylostella) | percentage hatching rate of the eggs and survival rate of the caterpillars (% activity) (Heliothis virescens eggs) | percentage reduction in the population (% activity) (Diabrotica balteata) | percentage reduction in the population and in the feeding damage (% activity) (Spodoptera littoralis [1])

Cc1c(NC(=O)c2cc(C(F)(F)F)nn2-c2ncccc2Cl)c(C(=O)NC(C)C)cc2nc(C(F)(F)F)ccc12 [Compound T8.1.7]
over 80%: percentage reduction in the population (% activity) (Diabrotica balteata)

CC(C)NC(=O)c1cc2nc(C(F)(F)F)ccc2c(Br)c1NC(=O)c1cc(C(F)(F)F)nn1-c1ncccc1Cl [Compound T8.1.9]
over 80%: percentage reduction in the population and in the feeding damage (% activity) (Plutella xylostella) | percentage reduction in the population (% activity) (Diabrotica balteata) | percentage reduction in the population and in the feeding damage (% activity) (Spodoptera littoralis [1])

O=C(NCC1CC1)c1cc2nc(C(F)(F)F)ccc2c(Cl)c1NC(=O)c1cc(C(F)(F)F)nn1-c1ncccc1Cl [Compound T8.1.14]
over 80%: percentage reduction in the population (% activity) (Diabrotica balteata)

CCNC(=O)c1cc2nc(C(F)(F)F)ccc2c(C)c1NC(=O)c1cc(Cl)nn1-c1ncccc1Cl [Compound T8.1.22]
over 80%: percentage reduction in the population (% activity) (Diabrotica balteata)

CNC(=O)c1cc2nc(C(F)(F)F)ccc2c(Cl)c1NC(=O)c1cc(Br)nn1-c1ncccc1Cl [Compound T8.1.38]
over 80%: percentage reduction in the population and in the feeding damage (% activity) (Plutella xylostella) | percentage hatching rate of the eggs and survival rate of the caterpillars (% activity) (Heliothis virescens eggs) | percentage reduction in the population (% activity) (Diabrotica balteata) | percentage reduction in the population and in the feeding damage (% activity) (Spodoptera littoralis [1])

Cc1c(NC(=O)c2cc(Br)nn2-c2ncccc2Cl)c(C(=O)NC(C)C)cc2nc(C(F)(F)F)ccc12 [Compound T8.1.43]
over 80%: percentage reduction in the population and in the feeding damage (% activity) (Plutella xylostella) | percentage hatching rate of the eggs and survival rate of the caterpillars (% activity) (Heliothis virescens eggs) | percentage reduction in the population (% activity) (Diabrotica balteata) | percentage reduction in the population and in the feeding damage (% activity) (Spodoptera littoralis [1])

CSCC(C)(C)NC(=O)c1cc2nc(C(F)(F)F)ccc2c(C)c1NC(=O)c1cc(Br)nn1-c1ncccc1Cl [Compound T8.1.82]
over 80%: percentage reduction in the population and in the feeding damage (% activity) (Plutella xylostella) | percentage hatching rate of the eggs and survival rate of the caterpillars (% activity) (Heliothis virescens eggs) | percentage reduction in the population (% activity) (Diabrotica balteata) | percentage reduction in the population and in the feeding damage (% activity) (Spodoptera littoralis [1])

Cc1c(NC(=O)c2cc(C(F)(F)F)nn2-c2ncccc2Cl)c(C(=O)NC(C)C)cc2ncc(C=O)cc12 [Compound T14.1.7]
over 80%: percentage reduction in the population and in the feeding damage (% activity) (Plutella xylostella) | percentage hatching rate of the eggs and survival rate of the caterpillars (% activity) (Heliothis virescens eggs) | percentage reduction in the population and in the feeding damage (% activity) (Spodoptera littoralis [1])

O=C(NCC1CC1)c1cc2ncsc2c(Cl)c1NC(=O)c1cc(C(F)(F)F)nn1-c1ncccc1Cl [Compound T23.1.14]
over 80%: percentage reduction in the population and in the feeding damage (% activity) (Plutella xylostella) | percentage hatching rate of the eggs and survival rate of the caterpillars (% activity) (Heliothis virescens eggs) | percentage reduction in the population and in the feeding damage (% activity) (Spodoptera littoralis [1])

CSCC(C)(C)NC(=O)c1cc2ncsc2c(Cl)c1NC(=O)c1cc(C(F)(F)F)nn1-c1ncccc1Cl [Compound T23.1.88]
over 80%: percentage reduction in the population and in the feeding damage (% activity) (Plutella xylostella) | percentage hatching rate of the eggs and survival rate of the caterpillars (% activity) (Heliothis virescens eggs) | percentage reduction in the population (% activity) (Diabrotica balteata) | percentage reduction in the population and in the feeding damage (% activity) (Spodoptera littoralis [1])

CC(C)NC(=O)c1cc2nc(C(F)(F)F)[nH]c2c(Cl)c1NC(=O)c1cc(C(F)(F)F)nn1-c1ncccc1Cl [Compound T40.1.8]
over 80%: percentage reduction in the population and in the feeding damage (% activity) (Plutella xylostella) | percentage hatching rate of the eggs and survival rate of the caterpillars (% activity) (Heliothis virescens eggs) | percentage reduction in the population and in the feeding damage (% activity) (Spodoptera littoralis [1])

Cc1nc2cc(C(=O)NC(C)C)c(NC(=O)c3cc(C(F)(F)F)nn3-c3ncccc3Cl)c(Cl)c2s1 [Compound T81.1.8]
over 80%: percentage reduction in the population and in the feeding damage (% activity) (Plutella xylostella) | percentage hatching rate of the eggs and survival rate of the caterpillars (% activity) (Heliothis virescens eggs) | percentage of dead (activity) (Spodoptera littoralis [2]) | percentage reduction in the population and in the feeding damage (% activity) (Spodoptera littoralis [1])

Cc1nc2cc(C(=O)NCC3CC3)c(NC(=O)c3cc(C(F)(F)F)nn3-c3ncccc3Cl)c(Cl)c2s1 [Compound T81.1.14]
over 80%: percentage reduction in the population and in the feeding damage (% activity) (Plutella xylostella) | percentage hatching rate of the eggs and survival rate of the caterpillars (% activity) (Heliothis virescens eggs) | percentage reduction in the population and in the feeding damage (% activity) (Spodoptera littoralis [1])

CCc1nc2cc(C(=O)NC(C)C)c(NC(=O)c3cc(C(F)(F)F)nn3-c3ncccc3Cl)c(Cl)c2s1 [Compound T82.1.8]
over 80%: percentage reduction in the population and in the feeding damage (% activity) (Plutella xylostella) | percentage hatching rate of the eggs and survival rate of the caterpillars (% activity) (Heliothis virescens eggs) | percentage reduction in the population and in the feeding damage (% activity) (Spodoptera littoralis [1])

CCc1nc2cc(C(=O)NCC3CC3)c(NC(=O)c3cc(C(F)(F)F)nn3-c3ncccc3Cl)c(Cl)c2s1 [Compound T82.1.14]
over 80%: percentage reduction in the population and in the feeding damage (% activity) (Plutella xylostella) | percentage of dead (activity) (Spodoptera littoralis [2]) | percentage reduction in the population and in the feeding damage (% activity) (Spodoptera littoralis [1])

CNC(=O)c1cc2nc(SC)sc2c(Cl)c1NC(=O)c1cc(C(F)(F)F)nn1-c1ncccc1Cl [Compound T94.1.2]
over 80%: percentage reduction in the population and in the feeding damage (% activity) (Plutella xylostella) | percentage hatching rate of the eggs and survival rate of the caterpillars (% activity) (Heliothis virescens eggs) | percentage reduction in the population and in the feeding damage (% activity) (Spodoptera littoralis [1])

CSc1nc2cc(C(=O)NC(C)C)c(NC(=O)c3cc(C(F)(F)F)nn3-c3ncccc3Cl)c(Cl)c2s1 [Compound T94.1.8]
over 80%: percentage reduction in the population and in the feeding damage (% activity) (Plutella xylostella) | percentage hatching rate of the eggs and survival rate of the caterpillars (% activity) (Heliothis virescens eggs) | percentage reduction in the population and in the feeding damage (% activity) (Spodoptera littoralis [1])

CCCc1nc2cc(C(=O)NC(C)C)c(NC(=O)c3cc(C(F)(F)F)nn3-c3ncccc3Cl)c(C)c2cc1CC [Compound T112.1.7]
over 80%: percentage reduction in the population and in the feeding damage (% activity) (Plutella xylostella) | percentage hatching rate of the eggs and survival rate of the caterpillars (% activity) (Heliothis virescens eggs) | percentage reduction in the population and in the feeding damage (% activity) (Spodoptera littoralis [1])

Cc1c(NC(=O)c2cc(C(F)(F)F)nn2-c2ncccc2Cl)c(C(=O)NC(C)C)cc2c1ccc(C)[n+]2[O-] [Compound T113.1.7]
over 80%: percentage reduction in the population and in the feeding damage (% activity) (Plutella xylostella) | percentage hatching rate of the eggs and survival rate of the caterpillars (% activity) (Heliothis virescens eggs) | percentage of dead (activity) (Spodoptera littoralis [2]) | percentage reduction in the population and in the feeding damage (% activity) (Spodoptera littoralis [1])

COc1nc2cc(C(=O)NC(C)C)c(NC(=O)c3cc(C(F)(F)F)nn3-c3ncccc3Cl)c(Cl)c2s1 [Compound T115.1.8]
over 80%: percentage reduction in the population and in the feeding damage (% activity) (Plutella xylostella) | percentage hatching rate of the eggs and survival rate of the caterpillars (% activity) (Heliothis virescens eggs) | percentage of dead (activity) (Spodoptera littoralis [2]) | percentage reduction in the population and in the feeding damage (% activity) (Spodoptera littoralis [1])

CSc1nc2cc(C(=O)NC(C)C)c(NC(=O)c3cc(C(F)(F)F)nn3-c3ncccc3Cl)c(Cl)c2n1C [Compound T116.1.8]
over 80%: percentage reduction in the population and in the feeding damage (% activity) (Plutella xylostella) | percentage hatching rate of the eggs and survival rate of the caterpillars (% activity) (Heliothis virescens eggs) | percentage reduction in the population and in the feeding damage (% activity) (Spodoptera littoralis [1])

CSc1nc2cc(C(=O)NCC3CC3)c(NC(=O)c3cc(C(F)(F)F)nn3-c3ncccc3Cl)c(Cl)c2n1C [Compound T116.1.14]
over 80%: percentage reduction in the population and in the feeding damage (% activity) (Plutella xylostella) | percentage hatching rate of the eggs and survival rate of the caterpillars (% activity) (Heliothis virescens eggs) | percentage reduction in the population and in the feeding damage (% activity) (Spodoptera littoralis [1])

COc1nc2cc(C(=O)NCC3CC3)c(NC(=O)c3cc(C(F)(F)F)nn3-c3ncccc3Cl)c(Cl)c2[nH]1 [Compound T118.1.14]
over 80%: percentage reduction in the population and in the feeding damage (% activity) (Plutella xylostella) | percentage hatching rate of the eggs and survival rate of the caterpillars (% activity) (Heliothis virescens eggs) | percentage reduction in the population and in the feeding damage (% activity) (Spodoptera littoralis [1])
